Results reported in the supplement of paper PMC7666118.
The list shows a part of the results.

Protein sequences, listed by entry. Tags and fused reporters are not part of them. Lines headed by an entry give the natural chain unless they say otherwise; changes in a name come on top.
UniProt Q9UIG0: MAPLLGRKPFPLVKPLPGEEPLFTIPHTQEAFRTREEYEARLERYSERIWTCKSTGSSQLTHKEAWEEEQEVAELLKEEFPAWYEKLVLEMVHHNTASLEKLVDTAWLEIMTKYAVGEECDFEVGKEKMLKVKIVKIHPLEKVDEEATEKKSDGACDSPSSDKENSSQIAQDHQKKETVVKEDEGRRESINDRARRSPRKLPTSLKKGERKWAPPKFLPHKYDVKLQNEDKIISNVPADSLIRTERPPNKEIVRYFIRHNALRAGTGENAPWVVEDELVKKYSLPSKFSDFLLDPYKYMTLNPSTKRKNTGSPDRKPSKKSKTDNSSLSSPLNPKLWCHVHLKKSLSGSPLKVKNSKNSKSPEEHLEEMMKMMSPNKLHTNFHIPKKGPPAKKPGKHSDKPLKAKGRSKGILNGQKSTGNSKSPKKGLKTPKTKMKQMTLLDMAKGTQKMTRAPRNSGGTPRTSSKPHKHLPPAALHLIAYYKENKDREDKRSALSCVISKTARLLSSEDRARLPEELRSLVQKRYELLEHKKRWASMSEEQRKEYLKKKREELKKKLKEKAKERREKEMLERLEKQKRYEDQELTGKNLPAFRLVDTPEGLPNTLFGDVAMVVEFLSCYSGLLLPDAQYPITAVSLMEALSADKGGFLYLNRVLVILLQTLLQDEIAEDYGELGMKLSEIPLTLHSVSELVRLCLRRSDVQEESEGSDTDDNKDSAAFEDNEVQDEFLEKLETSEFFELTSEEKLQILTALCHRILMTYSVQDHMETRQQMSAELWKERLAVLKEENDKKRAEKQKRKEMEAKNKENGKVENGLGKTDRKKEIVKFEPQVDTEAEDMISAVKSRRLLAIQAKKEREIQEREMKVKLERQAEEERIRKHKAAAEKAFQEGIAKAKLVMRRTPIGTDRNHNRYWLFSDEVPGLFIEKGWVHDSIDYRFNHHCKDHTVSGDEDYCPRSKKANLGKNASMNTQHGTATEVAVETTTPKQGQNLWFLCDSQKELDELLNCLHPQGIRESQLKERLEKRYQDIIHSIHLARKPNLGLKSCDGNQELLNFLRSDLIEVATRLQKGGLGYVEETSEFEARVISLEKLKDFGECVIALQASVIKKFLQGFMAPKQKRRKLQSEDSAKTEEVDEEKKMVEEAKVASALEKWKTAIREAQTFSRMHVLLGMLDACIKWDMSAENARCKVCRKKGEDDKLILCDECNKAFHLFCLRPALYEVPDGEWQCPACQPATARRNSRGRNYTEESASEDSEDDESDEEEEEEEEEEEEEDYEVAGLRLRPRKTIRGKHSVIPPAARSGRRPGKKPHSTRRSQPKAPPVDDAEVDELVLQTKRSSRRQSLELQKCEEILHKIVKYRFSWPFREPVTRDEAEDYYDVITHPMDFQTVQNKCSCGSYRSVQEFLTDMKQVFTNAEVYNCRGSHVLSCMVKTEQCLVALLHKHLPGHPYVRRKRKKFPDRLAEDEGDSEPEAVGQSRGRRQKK
UniProt Q9H8K7: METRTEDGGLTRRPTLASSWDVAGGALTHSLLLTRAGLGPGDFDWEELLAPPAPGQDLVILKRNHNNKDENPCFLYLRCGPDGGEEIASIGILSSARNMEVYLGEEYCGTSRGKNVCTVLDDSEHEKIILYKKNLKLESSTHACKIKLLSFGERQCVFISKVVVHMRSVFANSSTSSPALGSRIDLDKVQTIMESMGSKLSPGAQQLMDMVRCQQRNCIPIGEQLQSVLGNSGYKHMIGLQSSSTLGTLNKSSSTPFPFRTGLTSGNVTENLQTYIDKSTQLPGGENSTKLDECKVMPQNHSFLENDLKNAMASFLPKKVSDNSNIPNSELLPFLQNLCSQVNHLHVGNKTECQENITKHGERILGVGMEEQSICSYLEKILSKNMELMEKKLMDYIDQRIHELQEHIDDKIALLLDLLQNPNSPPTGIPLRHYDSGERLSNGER
UniProt P30043: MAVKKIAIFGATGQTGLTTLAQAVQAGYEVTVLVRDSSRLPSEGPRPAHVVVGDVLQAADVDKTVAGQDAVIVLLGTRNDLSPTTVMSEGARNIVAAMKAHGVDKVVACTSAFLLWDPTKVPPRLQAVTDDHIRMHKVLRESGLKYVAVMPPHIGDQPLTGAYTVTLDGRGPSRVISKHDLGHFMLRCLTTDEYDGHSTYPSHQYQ
UniProt Q5BKX5: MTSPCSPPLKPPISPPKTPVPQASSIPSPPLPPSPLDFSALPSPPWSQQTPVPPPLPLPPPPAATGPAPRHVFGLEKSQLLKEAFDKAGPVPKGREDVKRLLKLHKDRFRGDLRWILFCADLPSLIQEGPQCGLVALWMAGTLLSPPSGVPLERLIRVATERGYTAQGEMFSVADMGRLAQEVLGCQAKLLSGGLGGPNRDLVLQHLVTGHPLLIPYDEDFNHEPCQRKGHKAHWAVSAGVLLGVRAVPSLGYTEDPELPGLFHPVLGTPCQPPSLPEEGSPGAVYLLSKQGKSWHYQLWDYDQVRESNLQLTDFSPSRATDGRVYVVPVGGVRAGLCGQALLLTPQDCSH
UniProt Q8TF62: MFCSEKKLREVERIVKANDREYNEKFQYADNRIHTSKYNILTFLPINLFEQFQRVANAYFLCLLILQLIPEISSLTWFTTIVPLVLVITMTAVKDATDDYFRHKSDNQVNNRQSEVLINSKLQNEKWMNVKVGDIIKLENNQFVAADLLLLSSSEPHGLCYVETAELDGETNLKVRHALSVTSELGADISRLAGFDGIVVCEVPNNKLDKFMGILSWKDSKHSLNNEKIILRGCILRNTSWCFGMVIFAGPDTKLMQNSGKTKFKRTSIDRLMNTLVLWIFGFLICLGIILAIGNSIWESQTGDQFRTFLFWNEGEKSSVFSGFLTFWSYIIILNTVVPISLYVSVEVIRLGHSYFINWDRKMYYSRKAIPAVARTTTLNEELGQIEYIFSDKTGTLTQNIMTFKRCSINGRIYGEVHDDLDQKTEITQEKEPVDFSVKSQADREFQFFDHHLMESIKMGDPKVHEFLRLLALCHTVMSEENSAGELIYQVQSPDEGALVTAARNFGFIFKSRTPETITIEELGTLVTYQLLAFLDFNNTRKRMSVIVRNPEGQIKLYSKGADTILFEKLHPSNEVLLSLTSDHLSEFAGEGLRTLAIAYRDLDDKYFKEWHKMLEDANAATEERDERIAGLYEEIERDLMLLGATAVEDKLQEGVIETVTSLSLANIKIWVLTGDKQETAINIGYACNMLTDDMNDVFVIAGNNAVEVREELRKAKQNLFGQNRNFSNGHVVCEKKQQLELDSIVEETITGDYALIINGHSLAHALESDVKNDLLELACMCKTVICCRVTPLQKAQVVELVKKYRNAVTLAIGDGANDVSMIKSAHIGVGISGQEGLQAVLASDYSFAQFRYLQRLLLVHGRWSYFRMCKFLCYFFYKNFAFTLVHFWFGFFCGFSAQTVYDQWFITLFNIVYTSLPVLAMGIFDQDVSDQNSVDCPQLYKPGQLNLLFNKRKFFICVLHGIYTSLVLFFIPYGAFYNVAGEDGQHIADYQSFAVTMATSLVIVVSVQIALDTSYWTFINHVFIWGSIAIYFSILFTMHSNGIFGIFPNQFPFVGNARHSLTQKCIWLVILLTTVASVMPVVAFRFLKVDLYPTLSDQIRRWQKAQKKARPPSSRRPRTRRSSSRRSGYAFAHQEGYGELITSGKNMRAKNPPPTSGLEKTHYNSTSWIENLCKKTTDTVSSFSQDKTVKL
UniProt Q9Y5K8, whole entry: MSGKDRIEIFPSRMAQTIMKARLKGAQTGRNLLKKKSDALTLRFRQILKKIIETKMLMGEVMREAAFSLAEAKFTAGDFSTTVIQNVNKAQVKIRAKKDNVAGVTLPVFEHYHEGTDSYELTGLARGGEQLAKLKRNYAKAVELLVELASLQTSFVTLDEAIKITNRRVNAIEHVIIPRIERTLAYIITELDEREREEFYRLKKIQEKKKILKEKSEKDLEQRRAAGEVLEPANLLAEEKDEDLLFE
UniProt Q969H8: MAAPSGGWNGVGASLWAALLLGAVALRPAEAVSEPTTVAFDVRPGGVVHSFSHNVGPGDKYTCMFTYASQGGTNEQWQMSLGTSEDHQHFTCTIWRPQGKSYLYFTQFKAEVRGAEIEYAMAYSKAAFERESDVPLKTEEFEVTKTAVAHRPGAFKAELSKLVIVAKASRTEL
UniProt P02818: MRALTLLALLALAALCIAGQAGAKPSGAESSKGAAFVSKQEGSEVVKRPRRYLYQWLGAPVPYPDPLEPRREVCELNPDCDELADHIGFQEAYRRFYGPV
UniProt P00846: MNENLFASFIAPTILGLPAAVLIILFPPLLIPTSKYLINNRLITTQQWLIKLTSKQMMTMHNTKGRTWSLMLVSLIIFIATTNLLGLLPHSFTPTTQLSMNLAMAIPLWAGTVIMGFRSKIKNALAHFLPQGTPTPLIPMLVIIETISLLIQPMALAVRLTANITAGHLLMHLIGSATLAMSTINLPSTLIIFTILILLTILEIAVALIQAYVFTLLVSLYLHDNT
UniProt Q8IXM2, whole entry, looked up: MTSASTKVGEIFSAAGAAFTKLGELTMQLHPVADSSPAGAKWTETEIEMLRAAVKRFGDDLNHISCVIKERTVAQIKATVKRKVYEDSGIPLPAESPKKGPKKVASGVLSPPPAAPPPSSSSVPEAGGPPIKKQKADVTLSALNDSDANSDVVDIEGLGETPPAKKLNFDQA
UniProt Q9H7M9, whole entry: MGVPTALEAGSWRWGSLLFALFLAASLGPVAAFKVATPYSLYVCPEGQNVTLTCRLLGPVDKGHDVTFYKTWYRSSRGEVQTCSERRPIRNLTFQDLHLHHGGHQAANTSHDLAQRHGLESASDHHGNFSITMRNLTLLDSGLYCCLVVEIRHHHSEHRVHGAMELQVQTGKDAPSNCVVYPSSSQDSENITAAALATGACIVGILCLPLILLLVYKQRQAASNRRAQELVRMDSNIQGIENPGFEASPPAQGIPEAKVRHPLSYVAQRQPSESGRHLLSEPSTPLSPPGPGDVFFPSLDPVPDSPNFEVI
UniProt P98196: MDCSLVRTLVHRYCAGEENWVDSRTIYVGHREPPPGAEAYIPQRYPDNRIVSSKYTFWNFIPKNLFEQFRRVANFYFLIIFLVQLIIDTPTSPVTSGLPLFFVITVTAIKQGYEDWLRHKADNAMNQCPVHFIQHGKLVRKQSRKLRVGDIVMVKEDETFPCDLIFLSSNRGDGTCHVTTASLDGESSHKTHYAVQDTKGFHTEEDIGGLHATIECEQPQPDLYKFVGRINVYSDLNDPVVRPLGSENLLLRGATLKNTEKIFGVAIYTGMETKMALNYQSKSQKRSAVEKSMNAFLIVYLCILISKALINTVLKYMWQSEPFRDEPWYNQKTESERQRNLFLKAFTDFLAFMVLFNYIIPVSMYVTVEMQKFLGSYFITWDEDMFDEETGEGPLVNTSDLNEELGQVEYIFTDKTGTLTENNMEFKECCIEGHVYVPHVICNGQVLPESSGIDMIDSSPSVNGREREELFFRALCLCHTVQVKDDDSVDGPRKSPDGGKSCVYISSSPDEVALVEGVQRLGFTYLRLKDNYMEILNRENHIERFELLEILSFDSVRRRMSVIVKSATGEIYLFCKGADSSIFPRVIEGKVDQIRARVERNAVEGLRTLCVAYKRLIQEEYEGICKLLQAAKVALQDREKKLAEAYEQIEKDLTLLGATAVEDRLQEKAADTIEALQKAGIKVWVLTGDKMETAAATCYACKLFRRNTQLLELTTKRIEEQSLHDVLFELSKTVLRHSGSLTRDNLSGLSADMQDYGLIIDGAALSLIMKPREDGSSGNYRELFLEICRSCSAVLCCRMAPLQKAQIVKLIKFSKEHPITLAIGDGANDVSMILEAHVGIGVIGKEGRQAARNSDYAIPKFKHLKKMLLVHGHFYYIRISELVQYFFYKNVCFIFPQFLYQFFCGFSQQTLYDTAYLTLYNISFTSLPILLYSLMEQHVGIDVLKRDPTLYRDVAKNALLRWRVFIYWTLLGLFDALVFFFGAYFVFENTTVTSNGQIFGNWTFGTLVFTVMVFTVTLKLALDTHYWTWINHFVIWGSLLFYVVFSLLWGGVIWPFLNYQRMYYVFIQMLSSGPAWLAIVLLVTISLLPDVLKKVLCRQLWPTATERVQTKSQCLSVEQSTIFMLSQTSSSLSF
UniProt Q8IX19: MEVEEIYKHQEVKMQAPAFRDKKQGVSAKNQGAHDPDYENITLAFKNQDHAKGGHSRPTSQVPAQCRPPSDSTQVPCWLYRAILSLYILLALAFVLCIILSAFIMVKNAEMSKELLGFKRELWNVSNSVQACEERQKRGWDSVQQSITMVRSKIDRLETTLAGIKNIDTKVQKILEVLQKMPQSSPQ
UniProt Q02338: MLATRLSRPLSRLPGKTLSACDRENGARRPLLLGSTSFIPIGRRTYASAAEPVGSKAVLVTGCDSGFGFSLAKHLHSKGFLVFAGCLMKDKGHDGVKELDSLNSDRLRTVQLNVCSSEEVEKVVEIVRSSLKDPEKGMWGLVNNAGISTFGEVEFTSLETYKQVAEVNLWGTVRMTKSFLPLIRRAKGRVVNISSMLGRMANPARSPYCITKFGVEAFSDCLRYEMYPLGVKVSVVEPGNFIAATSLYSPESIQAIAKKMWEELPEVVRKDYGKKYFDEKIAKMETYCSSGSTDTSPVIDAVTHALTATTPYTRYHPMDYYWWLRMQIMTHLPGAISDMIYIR

The targets below were run with COc1ccc(Cn2ccc3cc(C)c(C(=O)NO)cc32)cc1 (assay: dose-dependent thermal stabilisation call (2D-TPP, DLPTP, 10% FDR) (binary (1 = stabilised)); higher = stabilised by the compound). Conditions: system: HL-60 intact cells; concentration range 0.04-10 µM.
Procedure: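 2D thermal proteome profiling in intact HL-60 cells treated with BRD-3811 (0, 0.04, 0.29, 2, 10 uM) for 90 min at 37 C, then heated 3 min at one of 12 temperatures (42-63.9 C). Soluble protein was quantified by TMT10 MS. The value is the DLPTP call of the paper: dose-dependent thermal stabilisation over all temperatures at 10% FDR (F-test of a dose-response against a flat model); one experiment, one call per tested protein.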
For BAZ1B (UniProt Q9UIG0), the “dose-dependent thermal stabilisation call” value was inactive: 0.
In the case of BID (UniProt P55957), the “dose-dependent thermal stabilisation call” value is reported as inactive: 0.
With C14ORF142 (UniProt Q9BXV9) the “dose-dependent thermal stabilisation call” value was inactive: 0.
In the case of C10ORF88 (UniProt Q9H8K7), the “dose-dependent thermal stabilisation call” value is reported as inactive: 0.
For BLVRB (UniProt P30043), the “dose-dependent thermal stabilisation call” value was inactive: 0.
In the case of C19ORF54 (UniProt Q5BKX5), the “dose-dependent thermal stabilisation call” value is reported as inactive: 0.
C10ORF4 (UniProt Q70Z53) was tested, and the “dose-dependent thermal stabilisation call” value was inactive: 0.
With BRCA2 (UniProt P51587) the “dose-dependent thermal stabilisation call” value was inactive: 0.
With BPHL (UniProt Q86WA6) the “dose-dependent thermal stabilisation call” value was inactive: 0.
For ATP8B4 (UniProt Q8TF62), the “dose-dependent thermal stabilisation call” value was inactive: 0.
With ATP13A1 (UniProt Q9HD20) the “dose-dependent thermal stabilisation call” value was inactive: 0.
In the case of ATP6V1D (UniProt Q9Y5K8), the “dose-dependent thermal stabilisation call” value is reported as inactive: 0.
ATP5H (UniProt O75947) was tested, and the “dose-dependent thermal stabilisation call” value was inactive: 0.
C17ORF71 (UniProt Q8ND04) was tested, and the “dose-dependent thermal stabilisation call” value was inactive: 0.
With C19ORF10 (UniProt Q969H8) the “dose-dependent thermal stabilisation call” value was inactive: 0.
In the case of BRE (UniProt Q9NXR7), the “dose-dependent thermal stabilisation call” value is reported as inactive: 0.
For BRCC3 (UniProt P46736), the “dose-dependent thermal stabilisation call” value was inactive: 0.
With BUD31 (UniProt P41223) the “dose-dependent thermal stabilisation call” value was inactive: 0.
BCLAF1 (UniProt Q9NYF8) was tested, and the “dose-dependent thermal stabilisation call” value was inactive: 0.
With BGLAP (UniProt P02818) the “dose-dependent thermal stabilisation call” value was inactive: 0.
For ATP6 (UniProt P00846), the “dose-dependent thermal stabilisation call” value was inactive: 0.
For BAD (UniProt Q92934), the “dose-dependent thermal stabilisation call” value was inactive: 0.
In the case of C17ORF49 (UniProt Q8IXM2), the “dose-dependent thermal stabilisation call” value is reported as inactive: 0.
With C10ORF104 (UniProt Q96DE5) the “dose-dependent thermal stabilisation call” value was inactive: 0.
In the case of C10ORF54 (UniProt Q9H7M9), the “dose-dependent thermal stabilisation call” value is reported as inactive: 0.
In the case of ATP11A (UniProt P98196), the “dose-dependent thermal stabilisation call” value is reported as inactive: 0.
For BST2 (UniProt Q10589), the “dose-dependent thermal stabilisation call” value was inactive: 0.
For C19ORF59 (UniProt Q8IX19), the “dose-dependent thermal stabilisation call” value was inactive: 0.
In the case of BRP44 (UniProt O95563), the “dose-dependent thermal stabilisation call” value is reported as inactive: 0.
In the case of ATP2B4 (UniProt P23634), the “dose-dependent thermal stabilisation call” value is reported as inactive: 0.
With BTF3 (UniProt P20290) the “dose-dependent thermal stabilisation call” value was inactive: 0.
With C19ORF63 (UniProt Q5UCC4) the “dose-dependent thermal stabilisation call” value was inactive: 0.
For BARD1 (UniProt Q99728), the “dose-dependent thermal stabilisation call” value was inactive: 0.
BICD1 (UniProt Q96G01) was tested, and the “dose-dependent thermal stabilisation call” value was inactive: 0.
With BLM (UniProt P54132) the “dose-dependent thermal stabilisation call” value was inactive: 0.
For BDH1 (UniProt Q02338), the “dose-dependent thermal stabilisation call” value was inactive: 0.
